Measured values: article PMC12292255
Results are given in words; binding and its absence hold for the method and conditions named. Binding seen in cells or lysates may run through a third protein. Some binding calls cover weakened binding; strength is not graded here. For some assays here: Sequences can lack the tags named with a protein.

Protein sequences, listed by entry. Tags and fused reporters are not part of them.
UniProt P35241: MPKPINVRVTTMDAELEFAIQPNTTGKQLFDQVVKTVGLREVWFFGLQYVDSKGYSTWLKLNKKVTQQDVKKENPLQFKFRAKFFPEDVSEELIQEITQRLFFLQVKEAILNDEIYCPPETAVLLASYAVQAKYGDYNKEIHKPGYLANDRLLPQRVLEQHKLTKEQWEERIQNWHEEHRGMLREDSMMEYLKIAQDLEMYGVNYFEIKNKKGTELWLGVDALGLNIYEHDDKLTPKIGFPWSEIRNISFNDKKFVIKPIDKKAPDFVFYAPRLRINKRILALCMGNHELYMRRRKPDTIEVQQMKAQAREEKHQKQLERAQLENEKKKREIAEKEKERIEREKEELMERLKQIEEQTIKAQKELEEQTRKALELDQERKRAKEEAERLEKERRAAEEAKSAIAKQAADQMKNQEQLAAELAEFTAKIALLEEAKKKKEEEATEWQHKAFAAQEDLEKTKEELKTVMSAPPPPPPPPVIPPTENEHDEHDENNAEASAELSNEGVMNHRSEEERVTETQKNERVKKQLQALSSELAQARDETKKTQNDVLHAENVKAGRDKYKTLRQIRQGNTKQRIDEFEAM

Key:
Experiment in all cases: co-IP; lysates of cells expressing N-OATP1B1-GFP in 10 mM Tris/HCl pH 7.5, 150 mM NaCl, 1% NP-40, 2 mM EDTA, 3% glycerol; anti-GFP or anti-radixin antibody overnight at 4 °C, protein G agarose; immunoblot with radixin, phospho-ERM or GFP antibodies; in Figure 5A cells treated with PMA (10 μM) or Gö6983 (10 μM) for 30 min before lysis
[1] = target: T1, N-OATP1B1-GFP (organic anion transporting polypeptide 1B1 with GFP at the amino terminus) (human) (UniProt Q9Y6L6)
T1 sequence: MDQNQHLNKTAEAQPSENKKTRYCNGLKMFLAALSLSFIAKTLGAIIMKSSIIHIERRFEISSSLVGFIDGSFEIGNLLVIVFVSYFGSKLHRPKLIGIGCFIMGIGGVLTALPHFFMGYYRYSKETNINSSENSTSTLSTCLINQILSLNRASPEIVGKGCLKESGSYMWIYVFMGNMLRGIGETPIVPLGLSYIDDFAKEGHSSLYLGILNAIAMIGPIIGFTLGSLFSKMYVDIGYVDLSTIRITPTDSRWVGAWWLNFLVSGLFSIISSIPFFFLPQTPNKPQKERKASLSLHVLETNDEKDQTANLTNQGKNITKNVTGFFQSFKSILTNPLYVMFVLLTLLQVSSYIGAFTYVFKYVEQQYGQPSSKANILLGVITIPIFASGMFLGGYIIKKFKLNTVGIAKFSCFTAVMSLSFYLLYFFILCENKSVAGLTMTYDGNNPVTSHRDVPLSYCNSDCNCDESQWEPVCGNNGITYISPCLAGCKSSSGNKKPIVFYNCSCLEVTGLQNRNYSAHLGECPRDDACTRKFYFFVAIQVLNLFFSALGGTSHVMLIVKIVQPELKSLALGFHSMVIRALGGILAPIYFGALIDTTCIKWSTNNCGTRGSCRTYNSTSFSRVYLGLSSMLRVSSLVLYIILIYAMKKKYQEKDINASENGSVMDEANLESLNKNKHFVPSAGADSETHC

OATP1B1-3R (human) = target: T2, OATP1B1-3R (human) (UniProt Q9Y6L6)
T2 sequence: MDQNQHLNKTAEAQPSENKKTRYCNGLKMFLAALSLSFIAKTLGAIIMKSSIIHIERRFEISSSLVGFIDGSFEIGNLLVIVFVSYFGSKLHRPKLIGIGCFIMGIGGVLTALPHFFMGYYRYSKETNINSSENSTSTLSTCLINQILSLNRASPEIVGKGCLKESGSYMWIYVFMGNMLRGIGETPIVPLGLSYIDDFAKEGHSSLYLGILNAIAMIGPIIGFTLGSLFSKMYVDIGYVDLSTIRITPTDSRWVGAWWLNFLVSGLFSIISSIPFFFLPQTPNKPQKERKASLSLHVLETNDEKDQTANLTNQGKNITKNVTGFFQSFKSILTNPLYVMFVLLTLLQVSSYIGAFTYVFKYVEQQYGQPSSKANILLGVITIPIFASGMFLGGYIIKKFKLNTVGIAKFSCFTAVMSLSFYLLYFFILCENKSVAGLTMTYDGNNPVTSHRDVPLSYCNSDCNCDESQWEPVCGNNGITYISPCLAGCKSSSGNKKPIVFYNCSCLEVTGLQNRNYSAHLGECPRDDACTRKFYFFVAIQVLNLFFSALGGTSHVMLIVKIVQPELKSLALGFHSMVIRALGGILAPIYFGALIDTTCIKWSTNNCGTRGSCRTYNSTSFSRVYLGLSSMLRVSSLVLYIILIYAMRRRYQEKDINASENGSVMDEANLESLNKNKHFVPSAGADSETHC

OATP1B1-3A (human) = target: T3, OATP1B1-3A (human) (UniProt Q9Y6L6)
T3 sequence: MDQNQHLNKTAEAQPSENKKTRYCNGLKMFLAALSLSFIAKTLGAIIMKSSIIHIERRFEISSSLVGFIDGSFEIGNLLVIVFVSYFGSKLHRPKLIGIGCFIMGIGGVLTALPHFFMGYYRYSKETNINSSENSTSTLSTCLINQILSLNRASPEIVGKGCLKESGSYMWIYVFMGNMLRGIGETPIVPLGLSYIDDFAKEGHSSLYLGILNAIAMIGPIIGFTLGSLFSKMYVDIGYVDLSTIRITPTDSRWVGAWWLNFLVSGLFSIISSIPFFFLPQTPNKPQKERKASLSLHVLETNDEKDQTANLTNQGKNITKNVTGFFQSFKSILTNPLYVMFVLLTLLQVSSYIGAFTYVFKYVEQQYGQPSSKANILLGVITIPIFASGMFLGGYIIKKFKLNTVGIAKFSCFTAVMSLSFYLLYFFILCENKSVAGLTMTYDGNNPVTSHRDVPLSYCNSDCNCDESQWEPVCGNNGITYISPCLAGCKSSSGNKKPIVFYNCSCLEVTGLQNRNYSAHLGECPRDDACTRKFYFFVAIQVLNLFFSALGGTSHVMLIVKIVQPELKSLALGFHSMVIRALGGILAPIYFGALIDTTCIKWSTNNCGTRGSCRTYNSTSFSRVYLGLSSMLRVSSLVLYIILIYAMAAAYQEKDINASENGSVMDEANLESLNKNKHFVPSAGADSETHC

[2] = target: radixin (human (endogenous in HepG2)) (UniProt P35241)

Molecule | binding [1] | binding (OATP1B1-3R (human)) | binding (OATP1B1-3A (human)) | binding [2]
phosphorylated radixin (Thr564) (from UniProt P35241 1-583) | binds | – | – | –
radixin (from UniProt P35241 1-583) | binds | binds | binds | –
N-OATP1B1-GFP (organic anion transporting polypeptide 1B1 with GFP at the amino terminus) (protein, UniProt Q9Y6L6 1-691) MDQNQHLNKTAEAQPSENKKTRYCNGLKMFLAALSLSFIAKTLGAIIMKSSIIHIERRFEISSSLVGFIDGSFEIGNLLVIVFVSYFGSKLHRPKLIGIGCFIMGIGGVLTALPHFFMGYYRYSKETNINSSENSTSTLSTCLINQILSLNRASPEIVGKGCLKESGSYMWIYVFMGNMLRGIGETPIVPLGLSYIDDFAKEGHSSLYLGILNAIAMIGPIIGFTLGSLFSKMYVDIGYVDLSTIRITPTDSRWVGAWWLNFLVSGLFSIISSIPFFFLPQTPNKPQKERKASLSLHVLETNDEKDQTANLTNQGKNITKNVTGFFQSFKSILTNPLYVMFVLLTLLQVSSYIGAFTYVFKYVEQQYGQPSSKANILLGVITIPIFASGMFLGGYIIKKFKLNTVGIAKFSCFTAVMSLSFYLLYFFILCENKSVAGLTMTYDGNNPVTSHRDVPLSYCNSDCNCDESQWEPVCGNNGITYISPCLAGCKSSSGNKKPIVFYNCSCLEVTGLQNRNYSAHLGECPRDDACTRKFYFFVAIQVLNLFFSALGGTSHVMLIVKIVQPELKSLALGFHSMVIRALGGILAPIYFGALIDTTCIKWSTNNCGTRGSCRTYNSTSFSRVYLGLSSMLRVSSLVLYIILIYAMKKKYQEKDINASENGSVMDEANLESLNKNKHFVPSAGADSETHC | – | – | – | binds
